Test results from patent publication US20190225686A1.
Results are given in words; binding and its absence hold for the method and conditions named. Some entries that bind do so weakly or less than the wild type.

Chains of the proteins cited; added tags and fusions are not shown. Lines headed by an entry give the natural chain unless they say otherwise; changes in a name come on top.
UniProt Q99678: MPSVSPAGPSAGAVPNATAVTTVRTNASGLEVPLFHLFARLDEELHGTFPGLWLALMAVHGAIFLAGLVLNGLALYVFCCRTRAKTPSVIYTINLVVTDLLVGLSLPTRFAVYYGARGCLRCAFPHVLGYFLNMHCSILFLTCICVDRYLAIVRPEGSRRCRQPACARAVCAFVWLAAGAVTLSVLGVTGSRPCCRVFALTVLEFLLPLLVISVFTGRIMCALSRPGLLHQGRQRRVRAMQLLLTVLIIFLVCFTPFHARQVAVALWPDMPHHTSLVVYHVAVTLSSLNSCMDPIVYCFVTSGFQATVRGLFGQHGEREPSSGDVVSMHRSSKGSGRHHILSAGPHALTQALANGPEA

Target: human GPR20 (human) (UniProt Q99678)
Test: flow cytometry on 293T cells transfected with pcDNA3.1-hGPR20

- binding: binds
B1: humanized h046-Hwt/L6 (antibody, human IgG1, kappa, V domains shown)
VH: QVQLQQSGAELAKPGSSVKISCKASGYTFTSYYISWIKQTTGQGLKYIGFINPGSGHTNYNEKFKGKATLTVDKSSSTAFMQLSSLTPDDSAIYYCARGAGGFLRIITKFDYWGQGVMVTVSS
VL: DTQLTQSPSSLSASVGDRVTITCRASKSVSTYIHWYQQKPGKQPKLLIYSASDRESGVPSRFSGSGSGTDFTLTISSLQPEDFANYYCQQINELPYTFGQGTKVEIKR
